Data set [1] is classed as in vivo, rats. The following applies: morphine 3 or dextropropoxyphene 6 mg/kg alone. As for the experimental part:
The method is that described by Harris et al. (J. Pharmcol. Exp. Ther. 143 (1964) 141-148).
Male rats are used which have a weight of about 150-200 g and which have not been fasting. A point is chosen on the tail and this is irradiated by a heat source (75° C.) and the time (in seconds) for which the animal remains without moving its tail is measured.
A maximum period of time under the heat source of 8 seconds is chosen after which the animal is, in any case, removed in order to avoid tissue damage. The measurement is effected before (controls) and after treatment with the drugs. […] The percentage variation is calculated for each individual animal by the following formula: [formula] (time measurements are in seconds)
The measurements are carried out 10, 20, 30, 45, 60 and 90 minutes after treatment with the analgesics.

The nature of a further data set: in vivo. The following applies: mouse, sc. As to the method: The drug (or drugs) under examination was administered sub-cutaneously. The animals were kept under observation for 15 days after the administration.
Ten animals were used for each dose.

The results in this text go back to US4576951A, “Proglumide, pharmaceutical preparations and compositions including it for use in human pain relief” (priority 1983, dated 1986).

The structures appear in SMILES notation.

As for `CN1CC[C@]23c4c5ccc(O)c4O[C@H]2[C@@H](O)C=C[C@H]3[C@H]1C5` [Morphine], the “X, potency ratio with respect to morphine = 1” value in data set [1] is listed as 1. Moreover, in the data set “in vivo”, the LD50 – broadly, the dose expected to kill half of the subjects tested – at 360 h stood at 458 mg/kg.
